Consider 1 substance from article doi:10.1101/2022.11.01.514535.

The assay deals with T1, FBXL6-Flag (F-box/LRR-repeat protein 6, wild type) (human) (UniProt Q8N531).
T1 sequence: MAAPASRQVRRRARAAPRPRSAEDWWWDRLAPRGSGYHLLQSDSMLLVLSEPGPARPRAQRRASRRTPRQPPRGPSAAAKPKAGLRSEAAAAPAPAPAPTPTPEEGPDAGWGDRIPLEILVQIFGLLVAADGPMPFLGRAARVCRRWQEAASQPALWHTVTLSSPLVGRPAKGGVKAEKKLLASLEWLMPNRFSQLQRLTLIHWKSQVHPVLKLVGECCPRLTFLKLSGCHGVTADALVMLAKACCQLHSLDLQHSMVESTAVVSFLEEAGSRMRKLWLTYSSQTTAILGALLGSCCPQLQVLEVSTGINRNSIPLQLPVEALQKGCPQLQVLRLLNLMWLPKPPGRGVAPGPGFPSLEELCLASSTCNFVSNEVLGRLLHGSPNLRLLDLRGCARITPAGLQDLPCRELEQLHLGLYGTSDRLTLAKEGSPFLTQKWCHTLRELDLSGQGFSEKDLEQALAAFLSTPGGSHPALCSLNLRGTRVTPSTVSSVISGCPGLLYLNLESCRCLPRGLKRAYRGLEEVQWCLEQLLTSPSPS
Kind of assay: affinity purification with mass spectrometry.

No constants are given. Whether binding was seen depends on the method and setting. In cells and extracts the contact can be indirect. These calls come from enrichment with a bait or labelling near it, and not all partners need be listed. Where a sequence is shown, tags or fusion partners need not be part of it.

As to HSP90AA1 (from UniProt P07900 1-732), the binding result was “binds”.
